Some of the results follow.

By UniProt entry, the sequences of proteins in these tests, tags left out.
UniProt Q0JBA9, entry or part of it: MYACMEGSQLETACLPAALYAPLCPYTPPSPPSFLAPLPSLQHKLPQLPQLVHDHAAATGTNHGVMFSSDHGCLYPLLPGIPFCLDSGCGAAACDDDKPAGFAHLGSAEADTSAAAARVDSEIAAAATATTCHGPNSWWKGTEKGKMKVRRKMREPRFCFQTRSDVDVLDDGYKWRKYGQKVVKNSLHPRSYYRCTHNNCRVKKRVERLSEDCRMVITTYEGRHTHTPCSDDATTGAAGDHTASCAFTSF

This test has as its target OsWRKY34 (Oryza sativa, UniProt Q0JBA9 1-250). The test can be described thus: protein-binding microarray (RPBM); PBS, 2% BSA, 51.3 ng/ul salmon testes DNA, 50 uM zinc acetate, 200 nM TF, 25 C, 1 h; high values mean tight binding. The conditions noted are these: protein: recombinant; tags: N-terminal polyhistidine and DsRed monomer fusion (pET32a); label: CyDye5-dUTP incorporated in the synthesized complementary strand; 3' TTTTT single-stranded linker to array surface; dsDNA, one strand shown. A digest of the protocol: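 The binding signal for each feature is its fluorescence intensity in arbitrary units. An Axon 4000B scanner was used to read a custom Agilent array that had been made double-stranded with Cy5-dUTP primer extension, blocked with 2% BSA, incubated at 25 °C for 1 h with 200 nM protein in PBS, 2% BSA, salmon testes DNA and 50 µM zinc acetate, and washed. The protein was an N-terminal polyhistidine–DsRed transcription factor fusion from E. coli BL21-CodonPlus, purified on Ni–NTA.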
For “ACTTCATTCTCTCTTTTTTTTTTACACGTAAGACGGTAAACGGAGTCACCTAGTGCAG”, the binding signal was 9220 fluorescence intensity (a.u.).
In the case of “AGATTATTTACCGTGCGGGGTTATATATAGGGGAGGTTTTCGGAGTCACCTAGTGCAG”, the binding signal is 11300 fluorescence intensity (a.u.).
For “CAATTTCCACCCTTCCTTTTTCTCCGAAGCTAACGCGGCGCGGAGTCACCTAGTGCAG”, the binding signal was 8620 fluorescence intensity (a.u.).
In the case of “GAGAAGTTGATATGCATTGGTTTTTGGAGTTGGCGGGTTTCGGAGTCACCTAGTGCAG”, the binding signal was 11500 fluorescence intensity (a.u.).
Consider “CAACCTGTAATCATATCGTCGTGCTGTTTGTGATGTTTGTCGGAGTCACCTAGTGCAG”, for which the binding signal was 11000 fluorescence intensity (a.u.).
The result for “TGGAGCTAGTAGTTGGCTATACTATTGAACTTGCTCTTAACGGAGTCACCTAGTGCAG” reads 9040 fluorescence intensity (a.u.); that for “GCCGAGGAAACCCTAGCGCCGCATCCGCCTCCTATATATTCGGAGTCACCTAGTGCAG”, 9050 fluorescence intensity (a.u.); that for “CCATATTATTTGTCGTTTTGAGTTTTTGTTTGTAATATATCGGAGTCACCTAGTGCAG”, 9040 fluorescence intensity (a.u.).
Turning to “ATTTAGTCTTGTGTCATCAAATCCATTTAGTGTCTTTAAACGGAGTCACCTAGTGCAG”, the binding signal was 8020 fluorescence intensity (a.u.).
For “GCTAACTCGTCACGTCATTAGAAACCGTACACAATATTGTCGGAGTCACCTAGTGCAG”, the binding signal is 9020 fluorescence intensity (a.u.).
Turning to “TGTGGTCAATAGTAAGTAGTTTGGCAACATCCCACCAGTCCGGAGTCACCTAGTGCAG”, the binding signal was 8700 fluorescence intensity (a.u.).
Regarding “CGGAAGCATGGCACAATCCGGCACACCAACTCGTCGATTCCGGAGTCACCTAGTGCAG”, the binding signal was 8420 fluorescence intensity (a.u.).
For “GTGTGTGATGATGCATGCATGCCTATCTTGATTGGAAAACCGGAGTCACCTAGTGCAG”, the binding signal was 8210 fluorescence intensity (a.u.).
In the case of “GGGGCAGTTTTTGGATGGTTTGGCTCGCGAGCTTAACGAGCGGAGTCACCTAGTGCAG”, the binding signal is 8130 fluorescence intensity (a.u.).
The result for “TCCTTTTCTTATCATCTACACAGTGTTACCAGTCTACTAACGGAGTCACCTAGTGCAG” reads 9960 fluorescence intensity (a.u.); that for “ACCTGAACTTGTCCTGCACTCCTGCTGCTCCACCATCGCTCGGAGTCACCTAGTGCAG”, 10100 fluorescence intensity (a.u.); that for “GTGCTCACCTTGTCAGTCTTCTTCCTGAGTTTCCTGAACCCGGAGTCACCTAGTGCAG”, 10000 fluorescence intensity (a.u.).
With “CTTGGAACTGGCAGCCGCTGGCCTTTGTGTTCTTGATGATCGGAGTCACCTAGTGCAG”, the binding signal was 8460 fluorescence intensity (a.u.).
Regarding “ACACAGTATACACTAATTCAAACAATATTTCACTCATGATCGGAGTCACCTAGTGCAG”, the binding signal is 8410 fluorescence intensity (a.u.).
Turning to “CATCATATGCAAATGCAACACATGCAGACCGACAAGTCAACGGAGTCACCTAGTGCAG”, the binding signal is 8020 fluorescence intensity (a.u.).
On to “TATTGACATTTTTTTAAGTACTCCACGTGTTCGATTTGTACGGAGTCACCTAGTGCAG”, for which the binding signal is 8260 fluorescence intensity (a.u.).
The result for “TATGGATCTCATCTCTCCACACTTCTGCCCCACCAACAGCCGGAGTCACCTAGTGCAG” reads 10300 fluorescence intensity (a.u.).
In the case of “TCTCGGTTTTTTCGGTCTCGGTCTCGGTCTAACCGAATTCCGGAGTCACCTAGTGCAG”, the binding signal was 9120 fluorescence intensity (a.u.).
Consider “AGTCTTTACTTATAAGTGCTTATGATTTTTTTTTTGTGAACGGAGTCACCTAGTGCAG”, for which the binding signal is 8290 fluorescence intensity (a.u.).
Take “CATGCCGTGCTCGCGCTATTAATGTGGTGGTGGTGGTGGTCGGAGTCACCTAGTGCAG”: the binding signal was 10800 fluorescence intensity (a.u.).
As to “CAGAGCTCTTCCTGCTGTACCTACCAAGCTCTTACTTTGACGGAGTCACCTAGTGCAG”, the binding signal is 8060 fluorescence intensity (a.u.).
The result for “CTCCACCTTCAACCACTTCTTCTTCTTCTTCTTCTTCTTCCGGAGTCACCTAGTGCAG” reads 8520 fluorescence intensity (a.u.); that for “GCCCAATCCACCGTAGCCGCGGCCCATTTCGTTGTCCGTCCGGAGTCACCTAGTGCAG”, 9970 fluorescence intensity (a.u.).
Regarding “ACCGCAGTGCTCGCTCATATTTTTAGTCGCGTTGTTGCTGCGGAGTCACCTAGTGCAG”, the binding signal is 8340 fluorescence intensity (a.u.).
“TCCTAGCCATCTATTCTTCTCATCTATATCTTCACATCTCCGGAGTCACCTAGTGCAG”: the binding signal is 9760 fluorescence intensity (a.u.).
Take “GGATATTAGGATTTAACCGATTAATCATGCATTTTATATACGGAGTCACCTAGTGCAG”: the binding signal is 8560 fluorescence intensity (a.u.).
For the sequence “AAGAAACAACACACGTTAGCATTTCACTGCTATTAAGTTCCGGAGTCACCTAGTGCAG”, the binding signal was 8460 fluorescence intensity (a.u.).
As to “AGCGTAATGCCTATAACTTACTCGTCGCATGAGTTCTATTCGGAGTCACCTAGTGCAG”, the binding signal is 9020 fluorescence intensity (a.u.).
As for “CTTTTGCACTCGAGATATTTCATCAGTTCTTGCCATTTCACGGAGTCACCTAGTGCAG”, the binding signal is 16500 fluorescence intensity (a.u.).
The result for “GGCCGCCGCATTGCCCGCCTACCTACCCTGTGGTTTCCAGCGGAGTCACCTAGTGCAG” reads 8120 fluorescence intensity (a.u.); that for “AAAGTACACCCAAGGTCCCTCAATTTGTCATCGAGATACACGGAGTCACCTAGTGCAG”, 8050 fluorescence intensity (a.u.).
Regarding “TATGTTTTTCTTCCAACAGTCATGATATAGTTTTGCTTGTCGGAGTCACCTAGTGCAG”, the binding signal is 8560 fluorescence intensity (a.u.).
The result for “CCGTTGAGTTACTAATATGGTGCTGTGTCTCGGCTCTTGACGGAGTCACCTAGTGCAG” reads 11100 fluorescence intensity (a.u.); that for “CTTGTCCACTCCAGTCCACACAGCCACTCGATCGTTATCCCGGAGTCACCTAGTGCAG”, 11900 fluorescence intensity (a.u.); that for “TATTACTTTTTTTTGTGTGTGTTTCCTTGGCTCCTTGCTCCGGAGTCACCTAGTGCAG”, 8050 fluorescence intensity (a.u.).
The figure for “GAACCACCTCAATCTTCATGGTCCGGTTGAACGAGATCTACGGAGTCACCTAGTGCAG” is 8940 fluorescence intensity (a.u.); for “TCCATCGGTCTTCTCTTCCTAGCTTTCTGATGGAACGAAGCGGAGTCACCTAGTGCAG” it is 11800 fluorescence intensity (a.u.).

The values above are taken from paper PMC7819943, “Rice protein-binding microarrays: a tool to detect cis-acting elements near promoter regions in rice”.
